These are yes or no findings as the source states them, for the method shown.
Biological target: Bacillus subtilis GyrA C-terminal domain (amino acids 500-808) (Bacillus subtilis) (UniProt P05653)
Test: SEC; calibrated 16/60 Superdex 200-pg column, 50 mM Tris-HCl pH 7.5, 300 mM NaCl, 10 mM MgCl2, 2 mM beta-mercaptoethanol; last step of the purification; both purified

Amino acid sequences for entries named in this document (tags omitted). Residues count along the entry.
UniProt P05653, residues 500-808: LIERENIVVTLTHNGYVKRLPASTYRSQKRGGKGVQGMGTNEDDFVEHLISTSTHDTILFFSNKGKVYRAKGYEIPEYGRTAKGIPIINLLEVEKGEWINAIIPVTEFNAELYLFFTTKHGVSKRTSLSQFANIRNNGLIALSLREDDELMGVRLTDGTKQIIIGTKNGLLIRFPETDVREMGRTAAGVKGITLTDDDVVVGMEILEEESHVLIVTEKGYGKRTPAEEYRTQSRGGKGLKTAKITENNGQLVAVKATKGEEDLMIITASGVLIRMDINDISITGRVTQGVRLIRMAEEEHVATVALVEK

In the case of “Bacillus subtilis GyrA C-terminal domain (amino acids 500-808) (from UniProt P05653 500-808) (domain or fragment)”, the binding was “no binding”.
